Reference: patent publication EP2876156A1, “New enzymes and method for preparing hydroxylated L-lysine or L-ornithine and analogs thereof” (COMMISSARIAT A L'ENERGIE ATOMIQUE ET AUX ENERGIES …, priority 2013, dated 2015)

Tests used:
Type in all cases: biochemical
[1] = target: T1, ENZ1 SEQ ID N°1 (Catenulispora acidiphila, UniProt C7QJ42); experiment: Substrate selectivity screening of hydroxylase (conversion by HPLC after Fmoc-Cl derivatization); conditions: pH 7
T1 construct: His6 (hexahistidine, inserted after the initial methionine) (N); made in house; host or cells: E. coli BL21(DE3) plysE
T1 sequence (C7QJ42 1-358): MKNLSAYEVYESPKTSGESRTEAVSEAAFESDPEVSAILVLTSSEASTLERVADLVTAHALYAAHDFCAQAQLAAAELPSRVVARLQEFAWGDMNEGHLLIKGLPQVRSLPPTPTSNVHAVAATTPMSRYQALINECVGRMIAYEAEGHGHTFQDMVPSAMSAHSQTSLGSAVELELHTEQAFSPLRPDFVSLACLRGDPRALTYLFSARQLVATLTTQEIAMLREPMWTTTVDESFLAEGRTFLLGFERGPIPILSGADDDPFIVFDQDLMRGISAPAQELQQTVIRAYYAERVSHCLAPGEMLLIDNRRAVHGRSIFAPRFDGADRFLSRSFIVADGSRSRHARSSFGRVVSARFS
Protocol: (§1) Enzymatic reaction medium (0.2 µmole, leq.), borate buffer 0,2M pH 7.7 (80 µL) and Fmoc-Cl solution7.5 mM in acetone (100 µL, 0.75 µmole, 3.75 eq) were hand shaked in a closed 1.50 mL eppendorf for one minute. The aqueous layer was extracted with petroleum ether (3*1 mL) to eliminate excess of Fmoc-Cl. 70 µL of the aqueous phase were withdrawn, diluted with 70 µL of acetonitrile and injected into the HPLC. For substrates with two amine functions, 100 µL of Fmoc-Cl solution 15 mM were used.
(§2) Conditions for HPLC analysis: Atlantis® T3 (3 µm 4.5*150 mm) at 35°C with the gradient 50-86% eluent B (MeCN + 0.1% TFA) and eluent A (H2O + 0.1% TFA) in 20 min at 1 mL/min.
(§3) Enzymes (0.08 mg/mL) were screened against substrates (molar ratio α-ketoglutarate/substrate 15/10) in Hepes buffer 50 mM pH 7,5, with Mohr's salt at 1mM and without sodium ascorbate, at room temperature for three hours. The potential conversions of the substrates were determined by HPLC after Fmoc-Cl derivatization as section III here above.

[2] = target: T2, ENZ4 SEQ ID NO:4 (Catenulispora acidiphila, UniProt C7Q942); experiment: as above; conditions: pH 7
T2 construct: His6 (hexahistidine, inserted after the initial methionine) (N); made in house; host or cells: E. coli BL21(DE3) plysE
T2 sequence (C7Q942 1-343): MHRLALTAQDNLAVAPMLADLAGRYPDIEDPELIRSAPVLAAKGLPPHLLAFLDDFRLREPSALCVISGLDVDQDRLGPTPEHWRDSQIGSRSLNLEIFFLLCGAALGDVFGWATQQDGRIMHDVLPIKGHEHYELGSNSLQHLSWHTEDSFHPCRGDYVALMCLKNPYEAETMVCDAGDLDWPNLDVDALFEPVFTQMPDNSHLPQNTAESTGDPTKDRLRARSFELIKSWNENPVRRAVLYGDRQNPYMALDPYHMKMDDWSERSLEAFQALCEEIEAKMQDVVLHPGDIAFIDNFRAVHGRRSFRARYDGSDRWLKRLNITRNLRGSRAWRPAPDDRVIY
Protocol: as §1, §2, §3

[3] = target: T3, ENZ2 SEQ ID NO:2 (Flavobacterium johnsoniae, UniProt A5FF23); conditions: pH 7
T3 construct: His6 (hexahistidine, inserted after the initial methionine) (N); made in house; host or cells: E. coli BL21(DE3) plysE
T3 sequence (A5FF23 1-370): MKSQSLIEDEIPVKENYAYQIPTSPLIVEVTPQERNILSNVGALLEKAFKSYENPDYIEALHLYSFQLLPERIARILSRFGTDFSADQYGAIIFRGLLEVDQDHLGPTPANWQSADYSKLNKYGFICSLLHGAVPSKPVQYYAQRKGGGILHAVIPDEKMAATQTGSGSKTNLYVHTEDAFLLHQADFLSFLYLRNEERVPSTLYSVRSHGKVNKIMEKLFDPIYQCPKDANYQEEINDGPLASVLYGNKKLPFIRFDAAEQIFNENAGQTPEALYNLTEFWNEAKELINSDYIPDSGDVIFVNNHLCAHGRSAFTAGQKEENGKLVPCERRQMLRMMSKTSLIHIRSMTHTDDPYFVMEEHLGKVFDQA
Protocol: as §1, §2, §3

[4] = target: T4, ENZ3 SEQ ID NO:3 (Chitinophaga pinensis, UniProt C7PLM6); conditions: pH 7
T4 construct: His6 (hexahistidine, inserted after the initial methionine) (N); made in house; host or cells: E. coli BL21(DE3) plysE
T4 sequence (C7PLM6 1-382): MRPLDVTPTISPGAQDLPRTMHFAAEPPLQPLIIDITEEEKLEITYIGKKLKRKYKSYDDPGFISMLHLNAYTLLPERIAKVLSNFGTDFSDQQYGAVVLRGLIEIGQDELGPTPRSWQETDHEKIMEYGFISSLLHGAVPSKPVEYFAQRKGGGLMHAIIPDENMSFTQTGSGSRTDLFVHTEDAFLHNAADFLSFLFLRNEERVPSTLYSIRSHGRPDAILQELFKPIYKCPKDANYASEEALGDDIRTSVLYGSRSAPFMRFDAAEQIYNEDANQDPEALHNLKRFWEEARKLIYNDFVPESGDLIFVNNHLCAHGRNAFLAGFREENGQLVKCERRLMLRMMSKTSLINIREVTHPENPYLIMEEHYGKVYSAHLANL
Protocol: as §1, §2, §3

[5] = target: T2, ENZ4 SEQ ID NO:4; experiment: Enzymatic hydroxylation of L-ornithine and L-arginine, 10 mL scale, conversion by HPLC; conditions: ENZ4 0.595 mg/mL, without sodium ascorbate, room temperature, 18h; HPLC after Fmoc-Cl derivatization (protocol A)
Protocol: 70 µL of the aqueous phase were withdrawn, diluted with 70 µL of acetonitrile and injected into the HPLC. […]
as §2
Enzymatic reaction medium (0.2 µmole, 1eq), 1% FDAA solution in acetone (50 µL, 1.5 µmoles, 7.5eq) and NaHCO3 solution 1M (10 µl, 10 µmoles, 50 eq.) were stirred in a closed 1.50 mL eppendorf at 43°C, 1000 rpm for 90 minutes. HCl 1M (25 µL) was added. 100 µL were withdrawn, filtered and injected into the HPLC. For substrates with two amine functions, 120 µL of 1% FDAA in acetone were used. […]
Enzymatic reaction was carried out in 250 mL glass erlenmeyer flask for a total volume of 4*10 mL. […] The conversion of L-lysine into 3-hydroxy-L-lysine (94%) was determined by HPLC after derivatization with Fmoc-Cl according to protocol A.
The protocol for L-ornithine hydroxylation was the same as that described above for the hydroxylation of L-lysine by ENZ1 except that the enzyme concentration was 0.595 mg/mL for ENZ4 and the reaction was carried without sodium ascorbate. The conversion of L-ornithine into hydroxylated product (68%) was determined by HPLC after derivatization with Fmoc-Cl according to protocol A. […]

| Structure (SMILES) | potential conversions of the substrates, ENZ1 SEQ ID N°1 [1] | potential conversions of the substrates, ENZ4 SEQ ID NO:4 [2] | potential conversions of the substrates, ENZ2 SEQ ID NO:2 [3] | potential conversions of the substrates, ENZ3 SEQ ID NO:3 [4] | conversion of L-ornithine into hydroxylated product [5] [%] |
| --- | --- | --- | --- | --- | --- |
| NCCC[C@@H](N)C(=O)O [D-ornithine] | negative | negative | negative | negative |  |
| NCCC[C@H](N)C(=O)O [L-ornithine] | negative | positive | negative | negative | 68 |
